Laboratory results as given in patent publication US20230132202A1, “Polymeric Binder and High Molecular Weight Polymer Antifouling Compositions” (The University of British Columbia, priority 2020, published 2023).
At least one compound was matched to its structure with a doubt left.

Tests used:
[1] = cited from earlier work
[2] = Drug release measurements from coated silicon wafers, UV-Vis; assay type: physicochemical
Description: Drug release measurements: The coated silicon wafers were added into the wells of 96 well-plate and immersed in PBS buffer (200 μL) was added to each well. At day 1 and day 7, the solution was collected and the drug concentration was measured using UV-Vis spectroscopy and standard curves prepared using pure bioactive agents. The released solution was diluted to 1 mL using PBS before the measurements.

SMILES | Hydrophobicity/ Hydrophilicity [1] | Net charge at pH 7.4 [1] | concentration of eluted drug ([2]; day 1, coated silicon wafer in PBS) | concentration of eluted drug ([2]; day 7, coated silicon wafer in PBS)
C[C@]12CC[C@@H]3c4ccc(O)cc4CC[C@H]3[C@@H]1CC[C@@H]2O [Estradiol] | Hydrophobic | Neutral | – | –
CO[C@H]1/C=C/O[C@@]2(C)Oc3c(C)c(O)c4c(O)c(c(/C=N/N5CCN(C)CC5)c(O)c4c3C2=O)NC(=O)/C(C)=C\C=C\[C@H](C)[C@H](O)[C@@H](C)[C@@H](O)[C@@H](C)[C@H](OC(C)=O)[C@@H]1C [Rifampicin] | Hydrophobic | Neutral | – | –
C[C@@H]1C[C@H]2[C@@H]3CCC4=CC(=O)C=C[C@]4(C)[C@@]3(F)[C@@H](O)C[C@]2(C)[C@@]1(O)C(=O)CO [dexamethasone, Dexamethasone] | – | – | 0.64 ppm (microgram/mL) | 0.89 ppm (microgram/mL)
